The chains behind the UniProt entries cited, without tags or fusion partners. Residues count along the entry.
UniProt P05067, 672-713 limits assumed: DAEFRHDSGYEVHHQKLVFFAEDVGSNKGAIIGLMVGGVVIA

In US11844846B2, “Styrylbenzothiazole derivatives and uses in imaging methods” (Emory University, priority 2018, dated 2023):

Experiments:
[1] = molecular target: α-Syn fibrils (Homo sapiens, UniProt P37840); experiment: [18F]F0502B saturation binding to α-Syn fibrils; conditions: synthetic fibrils, result in words
Description: (§1) [^18F]F0502B was evaluated in vitro and ex vivo binding assays to validate its specificity. α-Syn, Tau and Aβ PFFs were respectively incubated with increasing concentrations of [^18F]F0502B. The binding data were analyzed by curve fitting using nonlinear regression to obtain Kd and Bmax values. The Kd and a Bmax manifested the specific binding affinity with different fibrils. The affinity of [^18F]F0502B for AD 1-42 or Tau fibrils was much lower than that for α-Syn fibrils. […] To determine whether a binding site identified on recombinant α-Syn fibrils is also present in PD tissues, and to determine whether the density of binding sites is high enough to image fibrillar α-Syn in vivo, experiments on the binding of [^18F]F0502B to LBD, AD patient and control brain homogenates were conducted as well as extracted α-Syn, Tau and Aβ insoluble fibrillar fractions prepared from these samples, Kd and Bmax values for the PD cases were 37.47 nM and 14.3 pmol/nmol. In contrast, the Kd and Bmax values for Aβ fibrils in AD cases were 950.4 nM and 10.8 pmol/nmol and for Tau fibrils in AD cases were 1883 nM and 6.9 pmol/nmol. […] Autoradiography with [^18F]F0502B in human brain slices was performed. [^18F]F0502B selectively associated with the Lewy bodies in the brain sections from A53T PD mice but not in WT and AD transgenic mice. […]

[2] = system: Tau fibrils in AD cases; experiment: [18F]F0502B binding to patient brain insoluble fibrillar fractions, Tau; design: species or system human
Description: as §1

[3] = molecular target: Aβ fibrils in AD cases (Homo sapiens, UniProt P05067); experiment: [18F]F0502B binding to patient brain insoluble fibrillar fractions, Aβ
Description: as §1

[4] = molecular target: α-Syn insoluble fibrillar fraction, PD cases (Homo sapiens, UniProt P37840); experiment: [18F]F0502B binding to patient brain insoluble fibrillar fractions, α-Syn
Description: as §1

[5] = molecular target: Lewy bodies in the brain sections from LBD patients (Homo sapiens, UniProt P37840); experiment: autoradiography with [18F]F0502B, human brain slices; assay type: binding; conditions: LBD versus AD patients
Description: as §1

[6] = molecular target: Lewy body in the SN regions (Homo sapiens, UniProt P37840, A53T); experiment: microPET-CT imaging in mice
Description: To assess the performance of the developed PET tracer in a rodent PD model, microPET-CT imaging was performed in mice by the tail vein injection of [^18F]F0505B. Brain images were obtained 1 h after administration of radioactive PET Tracer in a A53T PD model. […] The mice were anesthetized using isoflurane and positioned in a prone position in the microPET-CT scanner with the brain in the field of view.
Following the acquisition of a CT attenuation correction scan, the mice were injected with the [^18F]-compound13 via the tail vein. Image voxel intensities represent absolute tracer concentration in units of μCi/ml. […] Though radioactive signals were found in the neck of 5×FAD mice, they were outside the brain.

[7] = molecular target: Lewy bodies in the brain sections from A53T PD mice (Homo sapiens, UniProt P37840, A53T); experiment: autoradiography with [18F]F0502B, mouse brain sections; assay type: binding; conditions: A53T PD versus WT and AD transgenic mice
Description: as §1

Cc1cc2nc(/C=C/c3ccc(O)c(Br)c3)sc2cc1N(C)CCOCC[18F]
binding affinity for α-Syn fibrils [1]: high binding affinity for synthetic α-Syn | Bmax [2]: 6.9 pmol/nmol | Kd [2]: 1880 nM | Bmax [3]: 10.8 pmol/nmol | Kd [3]: 950 nM | Bmax [4]: 14.3 pmol/nmol | Kd [4]: 37.5 nM | autoradiography binding in human brain sections [5]: selectively associated with the Lewy bodies in the brain sections from LBD but not AD patients | PET signal ([6]; 5×FAD mice): radioactive signals were found in the neck of 5×FAD mice, they were outside the brain | PET signal ([6]; A53T PD mice): specifically lighted up the Lewy body in the SN regions in A53T PD mice | PET signal ([6]; WT or Tau P301S mice): no signals were observed in WT or Tau P301S mice | autoradiography binding in mouse brain sections [7]: selectively associated with the Lewy bodies in the brain sections from A53T PD mice but not in WT and AD transgenic mice

Structures were worked out from names or drawings and are uncertain.
